Results are given in words; binding and its absence hold for the method and conditions named. In cells and extracts the contact can be indirect. Some results given as binding are weak or reduced against the parent protein; the word gives no strength. Sequences can lack the tags named with a protein.
Experiments:
[1] = target: GST Raf-1 (UniProt P04049); test: FRET or BRET; TR-FRET on serially diluted lysates of HEK 293T cells co-expressing the GST-tagged and the Venus-Flag-tagged protein; anti-GST-Terbium antibody as donor, Venus as acceptor; FRET buffer 20 mM Tris pH 7.0, 0.01% Nonidet-P40, 50 mM NaCl
[2] = target: GST Raf-1 (UniProt P04049); test: pull-down; GST pull-down with glutathione sepharose from lysates of HEK 293T cells co-expressing bait and prey; 0.5% NP-40, 150 mM NaCl, 10 mM HEPES; 3-4 hours at 4°C; western blot
[3] = target: GST N-Ras (UniProt P01111); test: as above

Measured: binding

B1: Venus-Flag Aurora A (protein, UniProt O14965 1-403)
chain: MDRSKENCISGPVKATAPVGGPKRVLVTQQFPCQNPLPVNSGQAQRVLCPSNSSQRIPLQAQKLVSSHKPVQNQKQKQLQATSVPHPVSRPLNNTQKSKQPLPSAPENNPEEELASKQKNEESKKRQWALEDFEIGRPLGKGKFGNVYLAREKQSKFILALKVLFKAQLEKAGVEHQLRREVEIQSHLRHPNILRLYGYFHDATRVYLILEYAPLGTVYRELQKLSKFDEQRTATYITELANALSYCHSKRVIHRDIKPENLLLGSAGELKIADFGWSVHAPSSRRTTLCGTLDYLPPEMIEGRMHDEKVDLWSLGVLCYEFLVGKPPFEANTYQETYKRISRVEFTFPDFVTEGARDLISRLLKHNPSQRPMLREVLEHPWITANSSKPSNCQNKESASKQS
binds: all assays above

From publication PMC5438655
